Here are results for ten sequences from patent US20170260531.

Chains of the proteins cited; added tags and fusions are not shown. A line that says so, or that is headed by a name, gives the form on record, which may keep a tag or linker. Residues count along the entry.
UniProt P01127, 82-190: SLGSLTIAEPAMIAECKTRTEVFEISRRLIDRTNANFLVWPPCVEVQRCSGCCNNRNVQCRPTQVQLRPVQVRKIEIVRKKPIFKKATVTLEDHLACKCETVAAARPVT
VEGF-121 (Homo sapiens), one chain, as listed by the source: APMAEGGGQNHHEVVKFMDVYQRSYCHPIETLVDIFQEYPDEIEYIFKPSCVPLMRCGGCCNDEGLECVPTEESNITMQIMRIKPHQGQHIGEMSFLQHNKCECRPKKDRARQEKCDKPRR
VEGF-165 (Homo sapiens), one chain, as listed by the source: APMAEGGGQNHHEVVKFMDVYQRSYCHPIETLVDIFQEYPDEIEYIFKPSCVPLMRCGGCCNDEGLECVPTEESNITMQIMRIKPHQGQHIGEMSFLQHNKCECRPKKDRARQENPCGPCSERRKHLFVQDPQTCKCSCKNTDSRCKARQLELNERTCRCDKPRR

The subject of series [1] is VEGF-121 (Homo sapiens). As to the kind of experiment: filter binding. Particulars: purified recombinant protein, protein details: R&D Systems, single-stranded DNA; for binding result: NB; for Kd: NB up to 100 nM.
Series [2] addresses PDGF-BB (Homo sapiens) (UniProt P01127). The series can be described thus: structure. Particulars: Bn-dU at 1,2,7,16,20; Ib-dU 8; Pe-dU 17; Th-dU 18; Heg at 5; 2'-OMe at A3,A11,A21,G24; PDB 4HQX, 2.30 A; about 20-50-fold weaker binding than SL5; purified recombinant protein; single-stranded DNA; variant of 4149-8_38.
The target is the same in series [3]. As to the kind of experiment: filter binding. Particulars: two 4149-8_260 units head-to-tail joined by five Heg; Bn-dU, Pe-dU, Th-dU, 2'-OMe as in 4149-8_260; homodimer construct; purified recombinant protein; label: 5'-32P; single-stranded DNA; variant of 4149-8_260 (SL5).
Series [4] shares this target. The series can be described thus: activity in cells. Particulars: Bn-dU; Nap-dU; 2'-OMe; C3; Heg; PDGFRb phosphorylation in Hs27; purified recombinant protein; protein details: R&D Systems; single-stranded DNA.
The test system of series [5] is VEGF-121 (Homo sapiens). As to the kind of experiment: activity in cells. Particulars: Bn-dU; MBn-dU; Nap-dU; 2'-OMe; C3; Heg; VEGFR2 phosphorylation in HUVEC; VEGF isoform not specified; purified recombinant protein; protein details: R&D Systems; single-stranded DNA.
The next series has as its system VEGF-165 (Homo sapiens). The series can be described thus: filter binding. Particulars: Nap-dU at all P positions; NB up to 100 nM; purified recombinant protein; label: 5'-32P; single-stranded DNA.

For some assays here: No signal at the amounts used counts as a negative. For some assays here: Construct, isoform or probe ends are uncertain for at least one entry. For some assays here: Weaker means in comparison with the reference protein, sequence or condition of that experiment.

For the sequence “AGCCGTTAAGTGCTTTAGATTTAAATGGA [4867-31_100]”, in the series on VEGF-121 (Homo sapiens) [1] (Nap-dU at all P, C3 spacer at 8,17,20), the binding result is reported as “no binding”. Take “AGCCGTTCAAGTGCTTTAGGATTTAAATGGA [4867-31_102]”: in the series on VEGF-121 (Homo sapiens) [1] (Nap-dU at all P positions, label: 5'-32P, variant of 4867-31_43), the binding result is on record as “no binding”. In the case of “TTACGTTACACGCGTTTATAGCG [4149-8_255 (SL4)]”, in the series with PDGF-BB (Homo sapiens) [2], the binding result is “binds more weakly”. A word on the Kd: it is a measure of binding affinity in units of concentration. With “AGCCGTTCAAGTGCTTGTAGGATTTAAA [4867-31_54]”, the Kd with VEGF-121 (Homo sapiens) [1] (Nap-dU at all P) is over 100 nM. As to “TTACGTTACACGCGTTTATAGCGTTACGTTACACGCGTTTATAGCG [4149-8_337]”, the Kd in the series with PDGF-BB (Homo sapiens) [3] was found to be 0.00379 nM.

With “AGCCGTTCAAGTGCTTGTAGATTTAAATGGA [4867-31_103]”, in the series on VEGF-121 (Homo sapiens) [1] (Nap-dU at all P), the binding result is “no binding”.

Take “CAGCCGTTCAAGTGCTTGTAGGATTTAAAT [4867-31_46]”: the Kd with VEGF-121 (Homo sapiens) [1] (Nap-dU at all P positions, label: 5'-32P) was over 100 nM.

In general, IC50 refers to the concentration at which inhibition is half-maximal. “TTACGTTACACGCGTTTATAGCGCCGTTCAAGTGCTTTAGATTTAAATG [4149-8_320]”: the half-maximal inhibitory concentration (IC50) with PDGF-BB (Homo sapiens) [4] came to 1 nM.

Regarding “TTACGTTACCGCGTTTATAGCGCCGTTCAAGTGCTTGTAGGATTTAAATGG [4149-8_401]”, the 50% inhibitory concentration (IC50) in the series on VEGF-121 (Homo sapiens) [5] came out at 0.7 nM. Regarding “CAGCCGTTCAAGTGCTTGTAGGATTTAAA [4867-31_47]”, the equilibrium dissociation constant (Kd) with VEGF-121 (Homo sapiens) [1] (Nap-dU at all P) and in the series on VEGF-165 (Homo sapiens) was over 100 nM each time.
